No constants are given. Whether binding was seen depends on the method and setting. For part of these data: Binding seen in cells or lysates may run through a third protein. Some results given as binding are weak or reduced against the parent protein; the word gives no strength.
How the values were obtained:
[1] = molecular target: programmed death ligand-1 (PD-L1), endogenous (human (endogenous in H1299, H23 and HEK293T)) (UniProt Q9NZQ7); assay: co-IP; endogenous proteins; H1299 and H23 lysates (NETN buffer) immunoprecipitated with IgG, KEAP1 or PD-L1 antibodies bound to Protein A/G agarose or magnetic beads, 1 hour at room temperature, 4 washes with NETN; immunoblotting
[2] = molecular target: PD-L1-SF (PD-L1 tagged with SF) (UniProt Q9NZQ7); assay: pull-down; HEK293T cells transfected with an SF-tagged construct; lysates (NETN buffer) incubated with S-protein agarose 4 hours at 4 °C, washed 4 times with NETN; immunoblotting with PD-L1 or KEAP1 antibodies
[3] = molecular target: purified GST-KEAP1 protein (UniProt Q14145); assay: pull-down; purified GST-KEAP1 and PD-L1-Flag incubated with GST-tag Purification Resin 4 hours at 4 °C, washed 3 times with PBS; immunoblotting; both purified

Amino acid sequences for entries named in this document (tags omitted). A change or cut given only in a name is not applied to a line headed by its entry. Chains listed by the source or under a name are the forms on record and can include a tag or linker. Residues count along the entry.
UniProt Q9NZQ7: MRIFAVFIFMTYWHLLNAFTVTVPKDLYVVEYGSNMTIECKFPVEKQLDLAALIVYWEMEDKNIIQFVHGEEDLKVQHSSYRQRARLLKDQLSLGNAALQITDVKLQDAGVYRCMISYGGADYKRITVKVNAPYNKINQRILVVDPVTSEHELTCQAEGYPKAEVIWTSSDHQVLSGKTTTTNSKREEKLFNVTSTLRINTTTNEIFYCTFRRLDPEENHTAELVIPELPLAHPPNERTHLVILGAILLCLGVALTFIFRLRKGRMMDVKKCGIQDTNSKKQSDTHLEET
PD-L1-SF (PD-L1 tagged with SF): residues 19-290 of Q9NZQ7

Row | Substance | binding [1] | binding [2] | binding [3]
1 | Kelch-like ECH-associated protein 1 (KEAP1), endogenous (from UniProt Q14145 1-624) (other; other documents disagree on this pair) | binds | binds | 
2 | purified PD-L1-Flag protein (from UniProt Q9NZQ7 19-238) |  |  | binds

Source: article PMC10899596
